From patent US20230142739A1, “PROTEIN-PROTEIN INTERACTION STABILIZERS” (The Regents of the University of California, priority 2020, published 2023)
Some entries share one result that the patent states for a list of compounds.

Amino acid sequences for entries named in this document (tags omitted). A change or cut given only in a name is not applied to a line headed by its entry.
UniProt Q13526: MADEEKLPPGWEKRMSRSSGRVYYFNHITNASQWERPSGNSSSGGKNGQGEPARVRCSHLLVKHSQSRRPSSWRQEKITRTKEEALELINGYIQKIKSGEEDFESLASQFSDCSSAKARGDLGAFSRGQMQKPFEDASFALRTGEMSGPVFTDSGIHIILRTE

How the values were obtained:
AS160/14-3-3γ complex = biological target: T1, AS160/14-3-3γ complex (Homo sapiens, UniProt P61981); assay: Selectivity screening FA, AS160 peptide; assay type: binding; conditions: 100 μM fragment
T1 construct: the full length 14-3-3γ was dialysis against 25 mM HEPES pH 7.5; made in house; host or cells: E. coli BL21(DE3), pPROEX HTb
T1 sequence (P61981 1-247): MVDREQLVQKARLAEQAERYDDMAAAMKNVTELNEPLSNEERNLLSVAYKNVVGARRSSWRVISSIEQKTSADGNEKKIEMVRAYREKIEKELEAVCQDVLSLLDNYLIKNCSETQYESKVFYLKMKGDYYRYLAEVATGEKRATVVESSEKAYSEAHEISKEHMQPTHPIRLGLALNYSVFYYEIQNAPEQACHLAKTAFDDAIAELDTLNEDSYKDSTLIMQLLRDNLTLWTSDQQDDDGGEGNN

Pin1_72/14-3-3γ = biological target: T2, Pin1_72/14-3-3γ (Homo sapiens, UniProt P61981+Q13526); assay: Fluorescence anisotropy protein titration, Pin1_72/14-3-3γ at constant compound; assay type: binding; conditions: based on internal DMSO control and 100 μM fragment
T2 construct: the full length 14-3-3γ was dialysis against 25 mM HEPES pH 7.5; made in house; host or cells: E. coli BL21(DE3), pPROEX HTb
Excerpt: Inspired by the binding poses of 3 and 9 we combined their structural features to improve stabilization. […] In case of complex stabilization, a left shift of apparent KD values is expected, here described as stabilization factors (SF).
Fluorescence Anisotropy (FA) Assays.

## O=Cc1ccc(-n2ccnc2-c2cc(Br)ccc2F)cc1Br [compound 27, 2-bromo-4-(2-(5-bromo-2-fluorophenyl)-1H-imidazol-1-yl)benzaldehyde]
AS160/14-3-3γ complex
  SF, AS160/14-3-3γ: 1.2-2.7

## O=Cc1ccc(-n2ccnc2-c2ccccc2Br)cc1Br [compound 23, 2-bromo-4-(2-(2-bromophenyl)-1H-imidazol-1-yl)benzaldehyde]
Pin1_72/14-3-3γ
  SF (fold stabilization): 13-93

## O=Cc1ccc(-n2ccnc2-c2ccc(F)cc2F)cc1Br [compound 28, 2-bromo-4-(2-(2,4-difluorophenyl)-1H-imidazol-1-yl)benzaldehyde]
AS160/14-3-3γ complex
  SF, AS160/14-3-3γ: 1.2-2.7
